From article PMC8113560
Results are given in words; binding and its absence hold for the method and conditions named. In cells and extracts the contact can be indirect. Some binding calls cover weakened binding; strength is not graded here.

Sequences of proteins named here, by UniProt entry; tags and fusion partners are left off. Residues count along the entry.
UniProt P46531, residues 1754-2555: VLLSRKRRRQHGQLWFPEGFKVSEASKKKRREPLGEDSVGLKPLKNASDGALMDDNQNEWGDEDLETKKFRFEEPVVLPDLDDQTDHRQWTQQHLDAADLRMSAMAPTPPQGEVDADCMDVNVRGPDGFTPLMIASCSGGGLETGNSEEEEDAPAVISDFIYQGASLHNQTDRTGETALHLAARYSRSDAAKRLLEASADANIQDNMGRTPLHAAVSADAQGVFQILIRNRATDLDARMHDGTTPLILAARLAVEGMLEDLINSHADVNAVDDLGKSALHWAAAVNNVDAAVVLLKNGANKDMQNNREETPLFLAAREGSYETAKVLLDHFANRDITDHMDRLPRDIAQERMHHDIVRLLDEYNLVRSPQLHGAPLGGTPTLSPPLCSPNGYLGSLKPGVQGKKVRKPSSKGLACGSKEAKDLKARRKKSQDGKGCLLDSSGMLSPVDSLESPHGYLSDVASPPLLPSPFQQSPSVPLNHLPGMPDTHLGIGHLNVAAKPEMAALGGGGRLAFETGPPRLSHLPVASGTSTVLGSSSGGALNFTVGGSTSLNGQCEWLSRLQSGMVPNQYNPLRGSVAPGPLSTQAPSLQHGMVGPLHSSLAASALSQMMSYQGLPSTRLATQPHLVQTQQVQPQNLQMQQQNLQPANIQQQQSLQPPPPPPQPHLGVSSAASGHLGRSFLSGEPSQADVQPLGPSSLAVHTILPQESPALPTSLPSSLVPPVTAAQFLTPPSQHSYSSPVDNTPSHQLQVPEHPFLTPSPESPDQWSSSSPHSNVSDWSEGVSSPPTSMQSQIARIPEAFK
UniProt P49841: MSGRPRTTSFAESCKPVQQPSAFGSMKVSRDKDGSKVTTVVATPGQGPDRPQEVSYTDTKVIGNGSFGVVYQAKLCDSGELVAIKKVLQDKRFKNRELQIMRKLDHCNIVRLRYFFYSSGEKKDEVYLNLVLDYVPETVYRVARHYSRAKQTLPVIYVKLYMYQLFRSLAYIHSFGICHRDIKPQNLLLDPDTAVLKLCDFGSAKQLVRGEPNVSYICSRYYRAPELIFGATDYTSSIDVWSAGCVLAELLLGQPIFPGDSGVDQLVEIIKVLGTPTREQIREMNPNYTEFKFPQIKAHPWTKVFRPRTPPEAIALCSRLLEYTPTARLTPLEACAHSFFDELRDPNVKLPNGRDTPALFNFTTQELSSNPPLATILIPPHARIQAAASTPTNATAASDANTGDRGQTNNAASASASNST
UniProt Q13233: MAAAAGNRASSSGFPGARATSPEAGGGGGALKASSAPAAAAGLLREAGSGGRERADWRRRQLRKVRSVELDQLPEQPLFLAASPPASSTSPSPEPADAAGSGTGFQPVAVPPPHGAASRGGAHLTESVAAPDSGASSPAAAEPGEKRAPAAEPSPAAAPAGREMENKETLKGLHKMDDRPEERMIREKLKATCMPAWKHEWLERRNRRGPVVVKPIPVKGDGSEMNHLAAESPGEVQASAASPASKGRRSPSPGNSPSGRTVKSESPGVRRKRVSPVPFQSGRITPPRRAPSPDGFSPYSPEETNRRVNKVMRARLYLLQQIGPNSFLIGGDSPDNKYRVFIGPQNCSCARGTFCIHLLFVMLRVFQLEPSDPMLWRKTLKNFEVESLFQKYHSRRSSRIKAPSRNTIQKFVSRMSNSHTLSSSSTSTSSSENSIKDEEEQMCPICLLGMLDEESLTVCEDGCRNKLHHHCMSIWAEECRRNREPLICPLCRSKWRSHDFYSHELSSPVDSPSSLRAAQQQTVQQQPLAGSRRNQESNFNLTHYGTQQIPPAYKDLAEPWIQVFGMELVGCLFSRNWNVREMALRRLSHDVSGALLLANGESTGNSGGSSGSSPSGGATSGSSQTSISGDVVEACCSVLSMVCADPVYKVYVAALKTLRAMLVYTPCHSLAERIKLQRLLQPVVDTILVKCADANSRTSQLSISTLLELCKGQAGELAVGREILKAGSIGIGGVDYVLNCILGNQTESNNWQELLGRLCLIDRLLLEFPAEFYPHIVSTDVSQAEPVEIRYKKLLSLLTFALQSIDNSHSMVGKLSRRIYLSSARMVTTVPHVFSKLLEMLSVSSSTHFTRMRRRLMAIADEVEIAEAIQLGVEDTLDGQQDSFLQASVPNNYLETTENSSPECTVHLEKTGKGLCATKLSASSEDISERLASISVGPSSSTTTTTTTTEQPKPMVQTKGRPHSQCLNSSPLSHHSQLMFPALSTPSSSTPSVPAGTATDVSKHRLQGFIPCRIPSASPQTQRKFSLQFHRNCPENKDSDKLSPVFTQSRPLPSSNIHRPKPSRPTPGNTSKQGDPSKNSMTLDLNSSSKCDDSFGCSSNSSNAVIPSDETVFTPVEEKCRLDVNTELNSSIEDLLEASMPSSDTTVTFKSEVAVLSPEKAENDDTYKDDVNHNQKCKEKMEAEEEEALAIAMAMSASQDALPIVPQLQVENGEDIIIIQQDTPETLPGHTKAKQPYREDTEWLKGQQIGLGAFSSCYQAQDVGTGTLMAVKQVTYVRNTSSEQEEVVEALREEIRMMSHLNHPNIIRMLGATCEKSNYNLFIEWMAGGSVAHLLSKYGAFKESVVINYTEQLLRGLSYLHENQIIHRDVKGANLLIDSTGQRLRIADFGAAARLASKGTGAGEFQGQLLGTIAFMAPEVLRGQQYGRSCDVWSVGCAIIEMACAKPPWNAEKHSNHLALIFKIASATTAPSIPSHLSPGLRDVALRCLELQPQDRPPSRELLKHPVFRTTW
UniProt P49336: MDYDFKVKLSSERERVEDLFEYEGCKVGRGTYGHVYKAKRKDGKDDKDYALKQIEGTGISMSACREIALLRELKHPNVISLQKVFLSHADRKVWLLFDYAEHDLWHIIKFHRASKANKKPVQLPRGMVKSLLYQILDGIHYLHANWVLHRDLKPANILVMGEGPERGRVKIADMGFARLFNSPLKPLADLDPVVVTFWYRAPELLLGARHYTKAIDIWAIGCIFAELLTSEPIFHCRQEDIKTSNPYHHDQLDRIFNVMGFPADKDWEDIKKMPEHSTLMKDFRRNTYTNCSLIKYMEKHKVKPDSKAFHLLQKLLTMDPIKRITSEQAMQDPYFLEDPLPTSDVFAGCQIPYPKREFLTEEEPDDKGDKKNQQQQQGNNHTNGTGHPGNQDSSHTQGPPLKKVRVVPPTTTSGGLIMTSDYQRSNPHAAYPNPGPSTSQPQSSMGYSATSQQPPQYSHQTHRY
UniProt P35249: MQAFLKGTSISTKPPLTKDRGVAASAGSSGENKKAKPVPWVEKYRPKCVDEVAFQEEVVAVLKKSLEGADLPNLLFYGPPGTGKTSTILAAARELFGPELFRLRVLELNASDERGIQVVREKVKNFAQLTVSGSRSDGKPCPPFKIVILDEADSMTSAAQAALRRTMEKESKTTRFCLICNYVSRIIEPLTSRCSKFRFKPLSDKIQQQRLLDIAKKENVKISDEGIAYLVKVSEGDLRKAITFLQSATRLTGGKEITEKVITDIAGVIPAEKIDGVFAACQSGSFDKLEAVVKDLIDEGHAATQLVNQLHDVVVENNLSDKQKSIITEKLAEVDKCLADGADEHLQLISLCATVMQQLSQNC

Biological target: endogenous Notch1 intracellular domain (NICD1) (human (endogenous in A549)) (UniProt P46531)
Assay: co-IP; lysates in NP-40-containing lysis buffer; FLAG or HA affinity agarose (or precipitation of endogenous RFC4, Notch1 or NICD1) overnight at 4 °C; wash 150 mM NaCl, 10 mM HEPES pH 7.4, 0.1% NP-40; cells with RFC4, CDK8, Notch1 or FBXW7 silenced, knocked out or overexpressed

Row | binding | Substance
1 | binds | GSK-3β (from UniProt P49841 1-420) (enzyme)
2 | binds | MEKK1 (from UniProt Q13233 1-1512) (enzyme)
3 | binds | endogenous CDK8 (from UniProt P49336 1-464) (enzyme)
4 | binds | endogenous RFC4 (from UniProt P35249 1-363)
